# Experimental data from US10258556B2, “Anti-aging peptide, its composition and method of using the same” (priority 2017, dated 2019).
# Part of at least one peptide drawing is inferred or uncertain, most often the ends. Residues, ends and D or L forms follow the SMILES beside them.
# Experiments:
# [1] = tested on: collagen (COL1A1, COL1A2 and COL3A1) and elastin (ELN) mRNA in CCD-966SK fibroblast cells; assay: Real-time RT-PCR of collagen and elastin mRNA levels in fibroblast cells; format: cell-based, human; details: peptide at different concentrations (0, 2 5 ug/ml), 24 hours or 48 hours, FIG. 1
# [2] = tested on: CCD-966SK fibroblast cells; assay: Transwell migration assay; format: cell-based, human; details: peptide at different concentrations, 24 hours and 48 hours, FIGS. 2A and 2B
smiles,measurement,setting,value
"C[C@H](NC(=O)[C@H](CCC(=O)O)NC(=O)[C@@H](NC(=O)[C@H](CO)NC(=O)[C@H](CC(=O)O)NC(=O)[C@@H]1CCCN1)[C@@H](C)O)C(=O)N[C@@H](CCCCN)C(=O)O [peptide of SEQ ID NO: 1, ProAspSerThrGluAlaLys] (H-PDSTEAK-OH)","expression of collagen and elastin (mRNA levels of COL1A1, COL1A2, COL3A1 and ELN)",[1],increased the expression of collagen and elastin
same,migration of the CCD-966SK fibroblast cells,[2],had the effect in enhancing the migration
